{
  "source": "patent US20100166603A1",
  "about": "“Powder Sterilization” (NOXILIZER, Inc., priority 2008, published 2010)",
  "system": "spores in PVP/spore mixture powder",
  "experiment": "NO2 gas sterilization of tumbled PVP/spore mixture powder in humid air, CFU recovery",
  "format": "cell-based",
  "details": "0.5 mm bead samples, one vial in polisher, 21 in Hg of humidity added",
  "experimental": "A test to determine whether 100 mg of (PVP) and spore mixture powder could be sterilized using an NO2 gas sterilization process that incorporates a powder tumbling system. The NO2 used was a 10% NO2/90% N2 mixture.\nA 2.2 cm diameter circular Tyvek® pieces was likewise cut and the Tyvek® piece was placed between the cap and the silicone septum ring forming a partially breathable cap on the vials, while maintaining the self-healing characteristic of the silicone septum.\nThe colony forming units (CFU's) recovered from each spore mixture were counted. Multiple plates and dilutions from a given biological indicator (BI) were averaged.\nVials were placed into a cylindrical mesh container. The container was in turn placed into a rock polisher that was configured to spin the container and the vials therein.\nThe second vial contained 100 mg of PVP/spore mixture with 10 3 mm glass beads (weight of the beads excluded). […]\nAfter the runs, the samples were processed and CFUs were counted after approximately 48 hours of incubation at 35° C.-39° C.",
  "note": "For at least one compound, name, drawing or mass did not settle the structure.",
  "data": [
    {"molecule": "[O]N=O", "note": "[NO2, nitrogen dioxide]", "values": [
      {"measurement": "spore concentration after treatment", "value": "5.0×100 spores/100 mg"}
    ]}
  ]
}
